# Among all 310,000 compounds or so, about 17,000 (5.5%) were called active. This list was built around the results that the source calls inconclusive (neither active nor inactive); the mix of calls is not that of the screen. Calls follow the shape of the dose curve; as a rule, active = well fitted inhibition curve with a large enough effect; inconclusive = small, poorly fitted or top-dose-only effect, or effect the other way; inactive = no such curve, though single readings can be large or run the other way. Potencies beside an inconclusive call are fits to weak or partial responses and may not hold up.
# Sequences of proteins named here, by UniProt entry; tags and fusion partners are left off. A change or cut given only in a name is not applied to a line headed by its entry.
# UniProt P51450: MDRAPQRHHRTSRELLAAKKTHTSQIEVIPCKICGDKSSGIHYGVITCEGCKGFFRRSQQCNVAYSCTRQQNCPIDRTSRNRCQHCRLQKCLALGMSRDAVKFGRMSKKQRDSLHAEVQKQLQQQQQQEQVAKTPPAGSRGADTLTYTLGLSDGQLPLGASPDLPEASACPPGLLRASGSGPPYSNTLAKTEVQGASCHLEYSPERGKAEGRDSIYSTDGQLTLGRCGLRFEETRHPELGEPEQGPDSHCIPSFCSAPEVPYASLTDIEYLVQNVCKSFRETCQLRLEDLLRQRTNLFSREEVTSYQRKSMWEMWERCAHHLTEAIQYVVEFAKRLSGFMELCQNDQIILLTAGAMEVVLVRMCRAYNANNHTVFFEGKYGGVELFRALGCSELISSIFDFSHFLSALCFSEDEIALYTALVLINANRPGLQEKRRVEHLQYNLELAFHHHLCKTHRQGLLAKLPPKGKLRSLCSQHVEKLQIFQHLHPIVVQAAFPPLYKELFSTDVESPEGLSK
# Biological target: Nuclear receptor ROR-gamma (Mus musculus) (UniProt P51450)
# Test: qHTS for inhibitors of ROR gamma transcriptional activity; also: nearly all actives have a fitted effect of over 60% in size
# Conditions: Drosophila S2 Gal4-RORgamma UAS-luciferase reporter, 20 h; activity change, negative = inhibition: at 53.6 µM (top of the series)
# Summary of the method: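 Drosophila Schneider cells stably carrying a metallothionein-driven Gal4 DBD–ROR gamma fusion and a UAS-Photinus luciferase reporter were exposed to compound for 1 hr, then induced with copper sulfate (700 uM final) for 20 hr at ambient temperature before luminescence reading.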
# % is scaled to controls: 0 for no effect and ±100 for the full control effect; potency is read from the fitted curve at half-maximal effect.
SMILES,"activity change, negative = inhibition",Potency
O=C(CSc1nc2ccccc2s1)CSc1nc2ccccc2s1,inactive: -86.4%,–
CCOC(=O)C(=O)Nc1ccccc1C(=O)NC(C)C,–,"inconclusive: 31.6 µM [inhibitor, single point]"
c1coc(-c2nc3nc4ccccc4n3nc2-c2ccco2)c1,–,"inconclusive: 3.98 µM [inhibitor, partial curve, poor fit]"
Cc1cc(SC(C)C(=O)Nc2c(C)n(C)n(-c3ccccc3)c2=O)nc2ccccc12 (stereo unspecified),–,"inconclusive: 15.8 µM [inhibitor, single point]"
Nc1c(Cl)ncnc1N/N=C/c1ccc2ccccc2n1,–,active: 0.398 µM
COc1ccccc1NC(=O)CSc1ncn(-c2ccccc2)n1,–,"inconclusive: 7.08 µM [inhibitor, partial curve]"
CCn1ccc(C(=O)Nc2ccsc2C(=O)OC)n1,–,"inconclusive: 35.5 µM [inhibitor, single point]"
COc1ccccc1-n1c(SCC(=O)N2CCc3ccccc32)nc2c(c1=O)SCC2,–,"inconclusive: 10 µM [activator, single point]"
N#Cc1c(SCC(=O)Nc2nccs2)nc2c(c1-c1ccco1)CCCC2,–,active: 10 µM
C=C(C)C(O)/C=C/c1cccc(OC)c1 (stereo unspecified),–,"inconclusive: 2.82 µM [activator, partial curve]"
Cc1ccc(N2C(=O)c3ccccc3C2=O)cc1Cl,–,"inconclusive: 11.2 µM [activator, partial curve, poor fit]"
O=C(CNC(=O)c1ccc2c(c1)OCCO2)N/N=C/c1ccc(O)cc1O,inactive: -11.5%,–
COC(=O)C1=C(Nc2ccccc2NC(=O)c2ccccc2C(=O)O)CSC1,–,"inconclusive: 3.16 µM [inhibitor, single point]"
CCOC(=O)C1CCCN(Cc2nc(N)nc(Nc3ccccc3)n2)C1 (stereo unspecified),inactive: -23.1%,–
CCOC(=O)N1CCN(Cc2cc(=O)oc3ccc(Cl)cc23)CC1,inactive: -1.97%,–
O=S(=O)(c1ccccc1)N1CCN(Cc2ccccc2)CC1,inactive: 3.43% [at 1.91 µM],–
CC(=O)C1=C(O)C=C(c2ccco2)CC1c1ccco1 (stereo unspecified),–,"inconclusive: 35.5 µM [inhibitor, single point]"
COc1ccc(/C=N/NC(=O)c2ccncc2)c(OC)c1,inactive: -21.4%,–
Cc1c(C(=O)OCCOC(C)C)[nH]c2c1C(=O)CC(C)(C)C2,–,"inconclusive: 17.8 µM [activator, partial curve, poor fit]"
O=C(NC(=S)NCCCN1CCOCC1)c1ccc([N+](=O)[O-])cc1,inactive: -9.57%,–
Cc1ccc(N=Cc2cc(Cl)cc(Cl)c2O)nc1,–,"inconclusive: 12.6 µM [inhibitor, partial curve, poor fit]"
COc1cccc(N(C(=O)c2nc3nccc(C)n3n2)c2nc3ccccc3s2)c1,–,"inconclusive: 10 µM [inhibitor, single point]"
O=C(Nc1cccc(Cl)c1)Nc1cnccn1,–,"inconclusive: 1.26 µM [activator, partial curve, poor fit]"
Cc1noc(C)c1-c1ccc2ncnc(NC3CCCc4ccccc43)c2c1 (stereo unspecified),–,active: 28.2 µM
CC(C)[n+]1ccn(C2=C([O-])c3ccccc3C(=O)/C2=N\S(=O)(=O)c2ccccc2)c1,inactive: -37.6%,–
Cc1onc(-c2ccccc2Cl)c1C(=O)Nc1sc2c(c1C#N)CCC2,–,"inconclusive: 12.6 µM [inhibitor, partial curve, poor fit]"

SMILES,"activity change, negative = inhibition",Potency
Cc1ccc(NC(=O)c2cccs2)cc1S(=O)(=O)N(C)C,–,"inconclusive: 12.6 µM [activator, single point]"
CC(=O)c1ccc(N2CCN(C(=O)COc3ccc(F)cc3)CC2)c(F)c1,–,"inconclusive: 8.91 µM [activator, partial curve]"
CCOc1ccc(CNC(=O)c2ccc(Sc3ccc(Cl)cc3)c(NC(C)=O)c2)cc1OC,–,"inconclusive: 15.8 µM [activator, single point]"
Cc1ccc(CC2SC(=Nc3ccccc3)N(c3ccccc3)C2=O)cc1 (stereo unspecified),–,"inconclusive: 10 µM [activator, partial curve]"
CC(=O)c1ccc(NC(=O)c2cc3nc4c(c(C(F)(F)F)n3n2)CCCC4)cc1,–,"inconclusive: 6.31 µM [activator, full curve, poor fit]"
COc1ccc(NC(=O)/C=C/c2cccc(Br)c2)cn1,–,"inconclusive: 0.355 µM [activator, full curve]"
Cc1ccc(CNC(=O)c2ccccc2NS(C)(=O)=O)cc1,inactive: -0.875%,–
COC(=O)c1ccc(-c2csc(NC(=O)c3ccc(S(=O)(=O)N4CCc5ccccc5C4)cc3)n2)cc1,inactive: -3.32%,–
Oc1ccc(/C=N/Nc2nc(N3CCCCCC3)nc(N3CCCCCC3)n2)c(O)c1,–,active: 15.8 µM
CC(=O)N1CC[n+]2c(-c3ccc(Cl)cc3Cl)csc21,inactive: -29.5%,–
Cc1cccc(N2CCN(C(=O)CCn3c(=O)[nH]c4ccccc4c3=O)CC2)c1C,inactive: 31.4%,–
COc1ccc(C(=O)/C=C/c2ccsc2)cc1CSCC(=O)O,–,active: 10 µM
O=C(CC(Sc1n[nH]c(-c2ccccc2)n1)c1ccccc1)NCc1ccccc1 (stereo unspecified),–,"inconclusive: 35.5 µM [activator, single point]"
C=CCc1cccc(/C=N/NC(=O)c2ccccc2OC)c1O,–,active: 0.501 µM
Cn1c(=O)c2c(nc3n2CC(COc2ccc(Cl)cc2)O3)n(C)c1=O (stereo unspecified),inactive: 2.32%,–
CCc1ccc(Nc2nc(N)nc(CSc3nc4ccccc4s3)n2)cc1,–,active: 12.6 µM
CC(C)(C)c1ccc(C(=O)N2CCCN(C(=O)c3ccc(C(C)(C)C)cc3)CC2)cc1,–,"inconclusive: 11.2 µM [activator, partial curve]"
Cc1ccccc1CS(=O)(=O)c1ncc(Cl)c(C(=O)Nc2ccc(F)cc2)n1,–,"inconclusive: 14.1 µM [inhibitor, single point]"
CC(C)N(C(=O)Nc1ccc2nsnc2c1)C(C)C,inactive: -11.2%,–
Cc1nc(C(F)(F)F)ccc1C(=O)Nc1ccc2ccccc2n1,–,"inconclusive: 35.5 µM [activator, single point]"
COc1ccc(CCNC(=O)CCN2C(=O)[C@@H]3Cc4ccccc4CN3C2=O)cc1OC,inactive: -8.89%,–
COC(=O)N[C@@H](CCc1ccccc1)[C@]1(C(C)=O)CCCC1=O,–,"inconclusive: 35.5 µM [inhibitor, single point]"
Cc1nc(C(=O)NCCO)cc2c1[nH]c1ccccc12,inactive: 13.9%,–
O=S(=O)(c1ccc(NC(=S)NC2CCCC2)cc1)N1CCCC1,inactive: 13%,–
CCC(C)(CC(=O)O)CC(=O)Nc1cc(C(F)(F)F)cc(C(F)(F)F)c1 (stereo unspecified),–,"inconclusive: 35.5 µM [inhibitor, single point]"
Fc1ccc(CSc2nnc3ccccn23)c(Cl)c1,–,"inconclusive: 22.4 µM [inhibitor, single point]"

# Gathered by group, the entries above containing a cyano group
SMILES,"activity change, negative = inhibition",Potency
N#Cc1c(SCC(=O)Nc2nccs2)nc2c(c1-c1ccco1)CCCC2,–,active: 10 µM
Cc1onc(-c2ccccc2Cl)c1C(=O)Nc1sc2c(c1C#N)CCC2,–,"inconclusive: 12.6 µM [inhibitor, partial curve, poor fit]"

# The listing continues:

SMILES,"activity change, negative = inhibition",Potency
CCOC(=O)c1nc(-c2ccc3c(c2)OCO3)[nH]c1C,–,"inconclusive: 0.0178 µM [activator, full curve]"
Fc1ccc(/C=N/n2c(-c3cccs3)n[nH]c2=S)cc1,–,active: 2 µM
Cc1ccc(-c2csc3nc(SCC(N)=O)n(Cc4ccccc4)c(=O)c23)cc1,–,active: 11.2 µM
Cc1ccc(SCCC(=O)Nc2ccccc2Br)cc1,inactive: 2.82%,–
CC(=O)Nc1ccc(S(=O)(=O)N2CCSC2)cc1,inactive: 27.2%,–
CCCCOc1ccc(-c2nnn(CC(=O)NCc3ccco3)n2)cc1,inactive: 24.6%,–
NN/C(=C\[N+](=O)[O-])Nc1ccccc1,–,"inconclusive: 35.5 µM [inhibitor, single point]"
CC1(C)CNC(=O)c2sc(NC(=O)c3ccccc3)nc2C1,–,"inconclusive: 0.398 µM [activator, full curve, poor fit]"
O=C1OCCC1N1C(=O)c2ccccc2S1(=O)=O (stereo unspecified),–,"inconclusive: 3.98 µM [inhibitor, single point]"
COc1cccc(C=N[C@@H](CO)[C@@H](O)c2ccc([N+](=O)[O-])cc2)c1O,–,"inconclusive: 10 µM [inhibitor, partial curve, poor fit]"
O=C(COc1ccccc1Cl)NCCNC(=O)c1cccnc1,inactive: 23.1%,–
Cc1onc(-c2ccccc2Cl)c1C(=O)N1CCN(c2cccc(Cl)c2)CC1,inactive: 0.795%,–
CCC(=O)N1CCc2cc(S(=O)(=O)NCCc3ccc(S(N)(=O)=O)cc3)ccc21,inactive: 7.67%,–
Cn1c(=O)c(C(=O)NNC(=O)c2cccc(Cl)c2)c(O)c2ccccc21,–,active: 14.1 µM
CCn1c(C)cc(C=C2C(=O)c3ccccc3C2=O)c1C,–,active: 11.2 µM
O=C1/C(=C/c2ccco2)SC(=S)N1C1CCS(=O)(=O)C1 (stereo unspecified),inactive: 23.2%,–
CC(C)(C)c1ccc(C(=O)NCc2ccc(Cl)cc2)cc1,–,"inconclusive: 12.6 µM [inhibitor, single point]"
COc1ccc(S(=O)(=O)Nc2nc3c(s2)CCCC3)cc1,–,"inconclusive: 35.5 µM [inhibitor, single point]"
CCOC(=O)C1(CCOc2ccccc2)CCN(Cc2cc(OC)c(O)cc2Cl)CC1,–,"inconclusive: 14.1 µM [activator, single point]"
O=C(Nc1ccc(F)cc1)c1ccc(CSc2ccccc2)o1,–,"inconclusive: 12.6 µM [activator, single point]"
Cc1cc(-c2nc3ccccc3o2)c2ccccc2n1,–,"inconclusive: 11.2 µM [inhibitor, single point]"
Cc1ccc(Nc2nc(C3CC3)cs2)cc1,–,"inconclusive: 10 µM [inhibitor, single point]"
BrC(=C\c1ccccc1)/C=N/N1CCN(c2ccccn2)CC1,–,"inconclusive: 35.5 µM [inhibitor, single point]"
CCOC(=O)c1cnc2ccc(C)cc2c1Nc1ccc(N2CCOCC2)cc1,–,"inconclusive: 35.5 µM [inhibitor, single point]"

# — PubChem BioAssay AID2551 (National Center for Advancing Translational Sciences (NCATS), 2010)
